Source: the supplement of paper PMC10849652
Some of the results follow.

By UniProt entry, the sequences of proteins in these tests, tags left out. Where a name states a change or a piece, a line headed by the entry shows the natural chain unless it says otherwise.
UniProt Q8IV53: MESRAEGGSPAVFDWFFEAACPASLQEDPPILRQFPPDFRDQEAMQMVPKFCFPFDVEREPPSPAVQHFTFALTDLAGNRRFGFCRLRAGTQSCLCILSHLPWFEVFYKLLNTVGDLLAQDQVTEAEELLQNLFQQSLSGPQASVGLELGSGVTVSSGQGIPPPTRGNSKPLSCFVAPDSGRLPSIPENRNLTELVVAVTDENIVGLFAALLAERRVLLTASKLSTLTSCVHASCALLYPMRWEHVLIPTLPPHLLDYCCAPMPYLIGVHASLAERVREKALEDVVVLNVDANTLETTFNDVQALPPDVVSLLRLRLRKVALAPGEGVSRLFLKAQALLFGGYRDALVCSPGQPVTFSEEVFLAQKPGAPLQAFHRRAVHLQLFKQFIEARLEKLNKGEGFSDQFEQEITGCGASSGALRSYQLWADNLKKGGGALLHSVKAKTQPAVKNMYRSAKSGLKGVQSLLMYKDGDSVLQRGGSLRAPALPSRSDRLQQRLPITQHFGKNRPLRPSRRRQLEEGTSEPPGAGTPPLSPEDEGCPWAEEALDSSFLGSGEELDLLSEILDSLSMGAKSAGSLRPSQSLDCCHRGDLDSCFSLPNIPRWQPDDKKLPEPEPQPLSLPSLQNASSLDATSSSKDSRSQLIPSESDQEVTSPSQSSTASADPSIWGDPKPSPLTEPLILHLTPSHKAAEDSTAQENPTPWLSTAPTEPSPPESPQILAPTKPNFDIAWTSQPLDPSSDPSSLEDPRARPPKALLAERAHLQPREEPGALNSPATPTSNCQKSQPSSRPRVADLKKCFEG
UniProt Q9NQI0, whole entry, looked up: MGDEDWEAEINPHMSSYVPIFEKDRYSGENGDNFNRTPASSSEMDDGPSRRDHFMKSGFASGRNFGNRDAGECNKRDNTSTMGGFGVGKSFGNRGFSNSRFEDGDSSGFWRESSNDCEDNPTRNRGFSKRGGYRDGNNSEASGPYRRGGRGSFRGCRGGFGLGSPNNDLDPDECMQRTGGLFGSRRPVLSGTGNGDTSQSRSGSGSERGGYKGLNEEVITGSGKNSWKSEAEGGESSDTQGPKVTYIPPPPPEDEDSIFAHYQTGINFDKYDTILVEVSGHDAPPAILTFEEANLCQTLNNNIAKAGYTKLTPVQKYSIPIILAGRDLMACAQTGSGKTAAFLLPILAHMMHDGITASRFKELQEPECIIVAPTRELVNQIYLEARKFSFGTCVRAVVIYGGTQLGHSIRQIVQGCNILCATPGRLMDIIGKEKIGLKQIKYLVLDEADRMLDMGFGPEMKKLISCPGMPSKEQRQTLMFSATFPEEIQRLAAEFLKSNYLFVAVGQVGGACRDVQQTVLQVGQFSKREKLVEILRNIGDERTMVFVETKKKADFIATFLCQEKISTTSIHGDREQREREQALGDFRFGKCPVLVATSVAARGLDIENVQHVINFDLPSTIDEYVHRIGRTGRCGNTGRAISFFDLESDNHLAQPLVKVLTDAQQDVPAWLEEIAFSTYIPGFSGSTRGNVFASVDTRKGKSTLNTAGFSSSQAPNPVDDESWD
UniProt Q9NUL7: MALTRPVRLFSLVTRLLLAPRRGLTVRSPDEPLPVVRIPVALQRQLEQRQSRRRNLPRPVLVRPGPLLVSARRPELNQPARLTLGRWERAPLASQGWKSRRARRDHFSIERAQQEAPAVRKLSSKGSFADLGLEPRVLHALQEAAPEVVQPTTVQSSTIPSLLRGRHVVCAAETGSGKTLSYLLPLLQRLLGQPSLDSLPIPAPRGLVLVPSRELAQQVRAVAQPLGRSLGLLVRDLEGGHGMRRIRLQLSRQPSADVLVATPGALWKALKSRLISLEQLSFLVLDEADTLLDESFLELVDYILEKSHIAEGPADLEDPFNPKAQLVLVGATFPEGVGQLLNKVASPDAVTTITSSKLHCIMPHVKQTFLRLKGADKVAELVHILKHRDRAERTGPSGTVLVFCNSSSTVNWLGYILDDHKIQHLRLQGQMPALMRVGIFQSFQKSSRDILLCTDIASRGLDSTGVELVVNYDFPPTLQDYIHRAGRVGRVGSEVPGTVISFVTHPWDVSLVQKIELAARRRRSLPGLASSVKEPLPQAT
UniProt P53355: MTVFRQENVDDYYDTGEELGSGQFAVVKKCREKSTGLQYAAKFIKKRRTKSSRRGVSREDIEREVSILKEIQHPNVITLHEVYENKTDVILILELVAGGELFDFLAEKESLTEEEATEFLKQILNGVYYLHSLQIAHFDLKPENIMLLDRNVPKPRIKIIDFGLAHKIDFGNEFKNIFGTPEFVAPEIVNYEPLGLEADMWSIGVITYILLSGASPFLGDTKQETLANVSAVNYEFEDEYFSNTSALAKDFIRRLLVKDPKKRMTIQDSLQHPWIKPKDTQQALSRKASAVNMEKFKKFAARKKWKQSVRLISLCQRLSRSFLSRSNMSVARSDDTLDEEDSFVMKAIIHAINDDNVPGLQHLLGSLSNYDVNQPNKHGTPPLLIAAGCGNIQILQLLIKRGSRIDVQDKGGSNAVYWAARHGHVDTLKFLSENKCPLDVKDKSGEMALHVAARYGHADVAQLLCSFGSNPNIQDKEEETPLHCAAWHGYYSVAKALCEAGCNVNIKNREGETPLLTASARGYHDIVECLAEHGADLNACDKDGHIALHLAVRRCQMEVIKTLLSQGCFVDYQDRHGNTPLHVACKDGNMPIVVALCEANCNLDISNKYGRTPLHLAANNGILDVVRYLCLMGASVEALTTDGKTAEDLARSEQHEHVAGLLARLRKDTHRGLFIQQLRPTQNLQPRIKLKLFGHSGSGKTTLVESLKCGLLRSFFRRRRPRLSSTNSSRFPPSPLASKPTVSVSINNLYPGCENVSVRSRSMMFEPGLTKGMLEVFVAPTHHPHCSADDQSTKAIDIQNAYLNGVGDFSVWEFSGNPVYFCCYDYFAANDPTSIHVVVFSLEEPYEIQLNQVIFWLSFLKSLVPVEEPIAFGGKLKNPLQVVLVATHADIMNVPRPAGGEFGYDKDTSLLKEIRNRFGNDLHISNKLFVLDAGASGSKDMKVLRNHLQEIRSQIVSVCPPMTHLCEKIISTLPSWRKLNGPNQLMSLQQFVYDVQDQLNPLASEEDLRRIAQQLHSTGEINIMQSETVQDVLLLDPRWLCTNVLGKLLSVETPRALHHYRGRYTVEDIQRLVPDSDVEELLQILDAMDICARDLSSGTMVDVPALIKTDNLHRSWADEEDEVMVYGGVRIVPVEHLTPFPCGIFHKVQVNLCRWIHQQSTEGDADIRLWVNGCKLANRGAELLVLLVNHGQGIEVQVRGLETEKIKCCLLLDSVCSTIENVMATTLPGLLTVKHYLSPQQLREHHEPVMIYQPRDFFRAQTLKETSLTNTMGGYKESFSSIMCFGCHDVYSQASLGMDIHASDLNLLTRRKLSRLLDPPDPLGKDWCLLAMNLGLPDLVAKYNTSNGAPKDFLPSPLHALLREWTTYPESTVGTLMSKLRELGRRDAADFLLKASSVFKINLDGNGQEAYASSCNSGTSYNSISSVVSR
UniProt O94760: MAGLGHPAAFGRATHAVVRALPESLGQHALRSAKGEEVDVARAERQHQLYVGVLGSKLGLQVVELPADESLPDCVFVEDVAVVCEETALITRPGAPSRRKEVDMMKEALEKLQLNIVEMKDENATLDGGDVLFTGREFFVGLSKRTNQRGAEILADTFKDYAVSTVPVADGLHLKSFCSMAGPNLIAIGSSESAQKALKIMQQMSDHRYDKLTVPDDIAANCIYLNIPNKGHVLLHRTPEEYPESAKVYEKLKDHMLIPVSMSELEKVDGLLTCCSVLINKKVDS
UniProt Q14203, whole entry, looked up: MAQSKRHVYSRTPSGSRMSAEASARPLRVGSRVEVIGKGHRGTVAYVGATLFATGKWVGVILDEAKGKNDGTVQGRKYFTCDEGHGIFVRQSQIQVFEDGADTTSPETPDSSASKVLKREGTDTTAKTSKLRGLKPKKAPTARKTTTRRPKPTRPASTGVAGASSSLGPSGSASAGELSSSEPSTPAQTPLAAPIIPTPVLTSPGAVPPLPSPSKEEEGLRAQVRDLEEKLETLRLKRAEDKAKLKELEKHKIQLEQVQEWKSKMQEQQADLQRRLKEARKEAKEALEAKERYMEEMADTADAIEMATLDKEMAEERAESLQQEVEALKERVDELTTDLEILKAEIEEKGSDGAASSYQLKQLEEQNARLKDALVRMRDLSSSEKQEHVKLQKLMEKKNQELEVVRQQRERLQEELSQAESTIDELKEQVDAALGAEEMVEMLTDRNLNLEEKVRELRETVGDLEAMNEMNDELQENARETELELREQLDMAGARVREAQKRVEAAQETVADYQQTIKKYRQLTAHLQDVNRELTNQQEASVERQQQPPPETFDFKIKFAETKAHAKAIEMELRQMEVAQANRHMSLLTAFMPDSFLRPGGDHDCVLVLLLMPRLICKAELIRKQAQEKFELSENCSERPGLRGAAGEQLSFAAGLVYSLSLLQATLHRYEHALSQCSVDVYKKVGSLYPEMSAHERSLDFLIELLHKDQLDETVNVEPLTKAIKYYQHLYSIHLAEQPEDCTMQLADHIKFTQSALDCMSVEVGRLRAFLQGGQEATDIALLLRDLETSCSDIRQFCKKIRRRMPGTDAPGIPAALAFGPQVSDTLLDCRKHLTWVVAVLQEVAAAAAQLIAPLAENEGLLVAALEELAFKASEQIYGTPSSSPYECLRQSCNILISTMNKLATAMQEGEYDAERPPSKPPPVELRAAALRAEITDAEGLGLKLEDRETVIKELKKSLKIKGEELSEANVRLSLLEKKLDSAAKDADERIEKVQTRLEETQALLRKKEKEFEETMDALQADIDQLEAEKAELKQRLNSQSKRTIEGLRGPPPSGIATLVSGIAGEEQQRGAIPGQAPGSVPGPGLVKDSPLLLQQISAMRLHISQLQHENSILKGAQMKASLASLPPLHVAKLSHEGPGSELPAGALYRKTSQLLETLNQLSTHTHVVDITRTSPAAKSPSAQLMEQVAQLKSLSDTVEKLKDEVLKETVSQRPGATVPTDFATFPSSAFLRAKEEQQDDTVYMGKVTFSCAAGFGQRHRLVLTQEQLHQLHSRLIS

Legend:
Test in all cases: log2 fold change, soluble protein after heating vs DMSO (PISA); higher = thermal stabilisation; K562 lysate, 10 uM; active = over 0.2 and 3.5 SD of the protein, either way, in both replicates (recomputed)
erlotinib = compound: C#Cc1cccc(Nc2ncnc3cc(OCCOC)c(OCCOC)cc23)c1 [erlotinib]
Outline: (§1)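 Values give the log-two fold change in thermal stability against solvent controls, from duplicates. Crude K562 extract at 1 mg/mL protein, made by dounce homogenisation in PBS pH 7.4 with 1 mM MgCl2, was treated with 10 μM compound for 30 min. After 3 min heating across 48°C-58°C, aliquots were pooled, adjusted to 0.5% NP-40 at 4°C and centrifuged at 21,000xg for 90 min. The supernatant was measured by TMTpro 16plex LC-MS/MS with channel sums equalised.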

[1] = compound: C/C(=N\NC(=O)C1=CC(=CC=C1)S(=O)(=O)N2CCOCC2)/C3=C(C=CC(=C3)Cl)O
Outline: as §1

[2] = compound: C1=CC(=CC=C1C2=NC3=C(N2)C=C(C=C3)C(=O)N)OC4=CC=C(C=C4)Cl
Outline: as §1

[3] = compound: C1=CC2=C(C=CC(=C2)/C=C\3/C(=O)NC(=NCC4=CC=CS4)S3)N=C1
Outline: as §1

[4] = compound: C1=CC2=NC=CN=C2C=C1/C=C/3\C(=O)NC(=O)S3
Outline: as §1

[5] = compound: C1=CC=C(C=C1)C2=NC(=C(N2)C3=CC=NC=C3)C4=CC(=C(C=C4)Cl)O
Outline: as §1

[6] = compound: C1=CC=C2C(=C1)C3=NNC4=CC=CC(=C43)C2=O
Outline: as §1

IRAK-1-4 Inhibitor I = compound: C1COCCN1CCN2C3=CC=CC=C3N=C2NC(=O)C4=CC(=CC=C4)[N+](=O)[O-] [IRAK-1-4 Inhibitor I]
Outline: as §1

ibrutinib = compound: C=CC(=O)N1CCC[C@@H](n2nc(-c3ccc(Oc4ccccc4)cc3)c3c(N)ncnc32)C1 [ibrutinib]
Outline: as §1

ralimetinib = compound: CC(C)(C)Cn1c(N)nc2ccc(-c3[nH]c(C(C)(C)C)nc3-c3ccc(F)cc3)nc21 [ralimetinib]
Outline: as §1

[7] = compound: CC(C)(O)CC(=O)NCCn1ccc2ncnc(Nc3ccc(Oc4cccc(C(F)(F)F)c4)c(Cl)c3)c21
Outline: as §1

[8] = compound: CC(C)C1=C2N=C(C=C(N2N=C1)NCC3=CC=CC=C3)NCCCCCCN
Outline: as §1

[9] = compound: CC1=C(C2=C(C=C1)C(=O)C3=CC=CC=C3N2CCCN)C
Outline: as §1

[10] = compound: CC1=C(C=C(C=C1)NC(=O)C2=CC(=CC=C2)C(C)(C)C#N)NC3=CC4=C(C=C3)N=CN(C4=O)C
Outline: as §1

[11] = compound: CC1=C(C=C(C=C1)NC(=O)C2=CC(=CC=C2)N(C)C)NC(=O)C3=CC=C(C=C3)O
Outline: as §1

[12] = compound: C1CCN(C1)C(=O)NC2=CC=CC(=C2)NC3=NC=C(C(=N3)NCCC4=CN=CN4)Br
Outline: as §1

[13] = compound: C1CN(CCC1(CC2=CC=C(C=C2)Cl)N)C3=NC=NC4=C3C=CN4
Outline: as §1

[14] = compound: CC(=O)c1cnc2ccc(-c3cc(Cl)c(O)c(Cl)c3)nc2c1N[C@H]1CC[C@H](CN(C)C)CC1
Outline: as §1

[15] = compound: CC1=C(C(CC(=O)N1)C2=CC=C(C=C2)C(F)(F)F)C(=O)NC3=C(C=C4C(=C3)C=NN4)F
Outline: as §1

[16] = compound: CC1=CC=C(C=C1)SC2=C3C=C(SC3=CN=C2)C(=O)N
Outline: as §1

Row | Target | log2 fold change (erlotinib) | log2 fold change [1] | log2 fold change [2] | log2 fold change [3] | log2 fold change [4] | log2 fold change [5] | log2 fold change [6] | log2 fold change (IRAK-1-4 Inhibitor I) | log2 fold change (ibrutinib) | log2 fold change (ralimetinib) | log2 fold change [7] | log2 fold change [8] | log2 fold change [9] | log2 fold change [10] | log2 fold change [11] | log2 fold change [12] | log2 fold change [13] | log2 fold change [14] | log2 fold change [15] | log2 fold change [16]
1 | DENND1C (UniProt Q8IV53) | inactive: 0.018 | inactive: 0.118 | inactive: 0.063 | inactive: 0.031 | inactive: 0.003 | inactive: -0.051 | inactive: -0.204 | inactive: 0.089 | inactive: 0.056 | inactive: 0.01 | inactive: -0.147 | inactive: -0.061 | inactive: -0.077 | inactive: 0.165 | inactive: 0.01 | – | – | – | – | –
2 | DDX4 (UniProt Q9NQI0) | inactive: -0.043 | inactive: 0.165 | inactive: -0.112 | inactive: -0.028 | inactive: -0.055 | inactive: 0.114 | inactive: -0.004 | inactive: -0.109 | inactive: 0.019 | inactive: 0.04 | inactive: 0.087 | inactive: -0.032 | inactive: 0.1 | – | inactive: -0.051 | inactive: 0.002 | inactive: 0.011 | inactive: -0.004 | inactive: 0.008 | inactive: -0.026
3 | DDX28 (UniProt Q9NUL7) | inactive: -0.022 | – | inactive: 0.019 | – | inactive: -0.072 | inactive: -0.074 | – | inactive: -0.07 | inactive: 0.073 | inactive: -0.025 | inactive: -0.026 | inactive: 0.058 | inactive: -0.015 | inactive: -0.042 | inactive: -0.058 | – | – | – | inactive: 0.036 | –
4 | DAPK1 isoform 3 (UniProt P53355) | inactive: -0.015 | inactive: -0.17 | inactive: -0.306 | inactive: -0.274 | – | inactive: 0.061 | inactive: 0.181 | inactive: 0.008 | – | inactive: 0.041 | inactive: 0 | inactive: -0.077 | inactive: 0.017 | inactive: -0.151 | inactive: -0.026 | – | – | inactive: 0.35 | inactive: 0.138 | inactive: -0.094
5 | DDAH1 (UniProt O94760) | inactive: 0 | inactive: -0.008 | inactive: 0.006 | inactive: -0.027 | – | inactive: -0.006 | inactive: 0.035 | inactive: -0.016 | – | inactive: -0.037 | inactive: -0.045 | inactive: -0.001 | active: -0.441 | inactive: 0.137 | inactive: -0.005 | inactive: 0.032 | inactive: 0.051 | inactive: -0.016 | – | inactive: -0.04
6 | DCTN1 isoform 4 (UniProt Q14203) | inactive: -0.021 | inactive: -0.166 | inactive: 0.065 | inactive: -0.109 | – | inactive: 0.098 | inactive: 0.126 | inactive: 0.02 | – | inactive: 0.114 | inactive: -0.076 | inactive: 0.1 | inactive: -0.11 | inactive: 0.044 | inactive: 0.036 | inactive: -0.141 | inactive: 0 | inactive: 0.089 | inactive: -0.074 | inactive: -0.029
